Article doi:10.1101/668608
Results are given in words; binding and its absence hold for the method and conditions named. In cells and extracts the contact can be indirect. Some results given as binding are weak or reduced against the parent protein; the word gives no strength.

Protein sequences, listed by entry. Tags and fused reporters are not part of them.
UniProt P34152: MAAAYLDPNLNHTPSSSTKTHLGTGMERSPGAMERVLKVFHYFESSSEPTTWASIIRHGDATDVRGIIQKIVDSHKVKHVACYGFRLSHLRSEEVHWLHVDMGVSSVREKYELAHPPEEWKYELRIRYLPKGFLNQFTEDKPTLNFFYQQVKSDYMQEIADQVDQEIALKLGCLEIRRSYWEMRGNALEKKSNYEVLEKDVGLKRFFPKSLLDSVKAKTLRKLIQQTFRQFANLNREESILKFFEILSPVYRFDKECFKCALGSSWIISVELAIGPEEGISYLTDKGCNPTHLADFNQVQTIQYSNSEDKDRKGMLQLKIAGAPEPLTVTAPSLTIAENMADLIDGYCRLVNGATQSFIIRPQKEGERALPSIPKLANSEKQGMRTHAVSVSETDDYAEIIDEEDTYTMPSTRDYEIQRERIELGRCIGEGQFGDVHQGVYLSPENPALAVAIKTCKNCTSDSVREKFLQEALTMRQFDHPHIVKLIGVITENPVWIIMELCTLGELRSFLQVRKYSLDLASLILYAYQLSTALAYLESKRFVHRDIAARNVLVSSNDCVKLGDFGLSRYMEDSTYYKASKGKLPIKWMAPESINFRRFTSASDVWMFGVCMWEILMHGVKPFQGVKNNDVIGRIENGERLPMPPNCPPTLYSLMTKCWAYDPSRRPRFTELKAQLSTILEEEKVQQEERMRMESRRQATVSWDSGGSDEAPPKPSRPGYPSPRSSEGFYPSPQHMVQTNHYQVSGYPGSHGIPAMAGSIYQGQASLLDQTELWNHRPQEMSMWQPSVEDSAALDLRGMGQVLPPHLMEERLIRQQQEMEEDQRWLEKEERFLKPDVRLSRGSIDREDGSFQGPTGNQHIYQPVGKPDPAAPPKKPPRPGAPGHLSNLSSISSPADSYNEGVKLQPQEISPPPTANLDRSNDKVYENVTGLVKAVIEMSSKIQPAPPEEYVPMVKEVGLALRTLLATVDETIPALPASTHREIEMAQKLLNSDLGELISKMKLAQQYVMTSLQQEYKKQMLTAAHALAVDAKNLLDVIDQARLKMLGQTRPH

Biological target: focal adhesion kinase (FAK) (mouse (endogenous in splenic B cells)) (UniProt P34152)
Experiment: co-IP

B1: Myo1e (protein, UniProt E9Q634 1-1107)
chain: MGSKGAYRYHWQSHNVKHSGVDDMVLLSKITESSIVENLKKRYMDDYIFTYIGSVLISVNPFKQMPYFGEKEVEMYQGAAQYENPPHIYALADSMYRNMIIDRENQCVIISGESGAGKTVAAKYIMSYVSRVSGGGPKVQHVKDIILQSNPLLEAFGNAKTVRNNNSSRFGKYFEIQFSPGGEPDGGKISNFLLEKSRVVMRNPGERSFHIFYQLIEGASPEQKQSLGITSMDYYYYLSLSGSYKVDDIDDKRDFQETLHAMNVIGIFSEEQTLVLQIVAGILHLGNISFKEVGNYAAVESEEFLAFPAYLLGINQDRLKEKLTSRQMDSKWGGKSESIHVTLNVEQACYTRDALAKALHARVFDFLVDSINKAMEKDHEEYNIGVLDIYGFEIFQKNGFEQFCINFVNEKLQQIFIELTLKAEQEEYVQEGIRWTPIEYFNNKIVCDLIESKVNPPGIMSILDDVCATMHAVGEGADQTLLQKLQMQIGSHEHFNSWNQGFIIHHYAGKVSYDMDGFCERNRDVLFMDLIELMQSSELPFIKSLFPENLQADKKGRPTTAGSKIKKQANDLVSTLMKCTPHYIRCIKPNETKKPKDWEESRVKHQVEYLGLKENIRVRRAGYAYRRVFQKFLQRYAILTKATWPVWRGDEKQGVLHLLQSVNMDSDQFQLGRSKVFIKAPESLFLLEEMRERKYDGYARVIQKTWRKFVARKKYVQMREEASDLLLNKKERRRNSINRNFIGDYIGMEERPELQQFVGKREKIDFADTVTKYDRRFKGVKRDLLLTPKCLYLIGREKVKQGPDKGVVKEVLKRRIEVERILSVSLSTMQDDIFILHEQEYDSLLESVFKTEFLSLLAKRYEEKTQKQLPLKFSNTLELKLKKENWGPWSAGGSRQVQFHQGFGDLAILKPSNKVLQVSIGPGLPKNSRPTRRNTVTSRGYPGGTKNNYPMRAAPAPPGCHQNGVIRNQFVPPPHAFGNQRSNQKSLYTSMARPPLPRQQSTGSDRLSQTPESLDFLKVPDQGVAGVRRQTSSRPPPAGGRPKPQPKPKPQVPQCKALYAYDAQDTDELSFNANDIIDIIKEDPSGWWTGRLRGKQGLFPNNYVTKI
binding: binds
